# Source: PubChem BioAssay AID686943 (Drosophila RNAi Screening Center, 2013)
# Assay: 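Fly genes whose loss alters ERK activation after insulin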 (primary screen)
# Cells: Drosophila S2R+ haemocyte-like cells expressing YFP-tagged ERK (Rolled)
# Knock-down reagent: long dsRNA against Drosophila genes
# Conditions: insulin stimulation versus unstimulated cells; dose and duration not given
# Measured: 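Antibody staining for doubly phosphorylated ERK divided by ERK-YFP signal, as plate z-scores, in insulin-treated and untreated cells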
# Direction: replicate 1, z-score of dpERK with insulin and replicate 2, z-score of dpERK with insulin: higher = more active ERK per ERK-YFP after insulin; replicate 1, z-score of dpERK under basal conditions: higher = more basal active ERK per ERK-YFP; replicate 1, z-score of ERK-YFP with insulin: higher = more YFP-tagged ERK signal
# The screen tested about 23,000 reagents; this is a random part of those with a known target gene and a result. 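Extra replicates exist only for a retested subset of genes; insulin dose and duration not given; both raised and lowered dpERK matter.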 The numbers tell different reagents against one gene apart. Names joined by + are all predicted targets of the reagent. Not stated in the record: the amount of reagent, the time to read-out.
Gene,reagent,"replicate 1, z-score of dpERK with insulin","replicate 2, z-score of dpERK with insulin","replicate 1, z-score of dpERK under basal conditions","replicate 1, z-score of ERK-YFP with insulin"
CG13992 (GeneID 33831),1,0.61,0.6,0.3,-1.12
HDAC4 (GeneID 32278),1,1.12,0.11,0,0.01
CG31391 (GeneID 41280),1,-0.21,-1.44,0.26,-0.12
Brr2 (GeneID 39737),1,1.37,4.04,-1.01,-4.34
TwdlL (GeneID 43203),1,1.39,1.4,0.14,-0.19
CG6805 (GeneID 36911),1,0.73,0.59,1.02,0.89
CG9016 (GeneID 33822),1,0.06,-0.68,0.79,0.23
CG15923 (GeneID 42443),1,0.76,0.36,0.41,-0.27
RhoGAP92B (GeneID 42371),1,-0.42,0.55,-0.92,0.23
RhoGAP92B (GeneID 42371),2,-0.15,-0.13,-1.85,-0.11
CG4953 (GeneID 34373),1,-0.56,0.12,1.31,0.7
CG3492 (GeneID 37902),1,-0.2,0.49,-0.37,0.39
Hen1 (GeneID 36301),1,-0.14,0.03,0.58,0.26
Hen1 (GeneID 36301),2,-0.35,1.1,-1.04,1.01
mtt (GeneID 35832),1,-0.83,-0.8,-0.25,-1.05
mtt (GeneID 35832),2,-0.38,-0.93,0.65,0.6
mtt (GeneID 35832),3,0.44,0.59,-0.05,0.78
mtt (GeneID 35832),4,-0.35,0.44,-1,0.31
Als2 (GeneID 40410),1,-0.49,-0.5,-0.21,0.33
Nmda1 (GeneID 36419),1,-0.36,-0.87,-0.08,0.86
veli (GeneID 43003),1,0.93,-0.26,0.5,-0.23
Obp56h (GeneID 37271),1,-1.32,-1.6,-0.95,-0.36
Acp53Ea (GeneID 36874),1,-0.38,-0.39,-0.9,0.29
CG2983 (GeneID 33485),1,-0.48,0.57,0.18,0.52
CG11050 (GeneID 33924),1,1.33,0.74,0.7,1.13
ebi (GeneID 33212),1,0.17,0.11,-0.48,-0.45
Lcp65Ag3 + Lcp65Ag2 + Lcp65Ag1,1,-0.22,0.23,-0.08,0.81
Lcp65Ag3 + Lcp65Ag2 + Lcp65Ag1,2,0.59,0.03,-0.61,0.3
CG42717 (GeneID 10178897),1,0.95,0.31,-0.68,-0.17
Rtel1 (GeneID 31497),1,-0.41,-0.4,0.02,0.19
E2f1 (GeneID 42550),1,-0.45,-4.31,-3.26,-7.11
Corp (GeneID 31764),1,-0.85,0.05,-1.32,0.37
CG15800 (GeneID 37763),1,0.47,0.23,0.62,0.22
CG34194 (GeneID 5740534),1,0.26,0.8,-0.53,-0.86
CG8854 (GeneID 36324),1,0.26,0.66,0.7,0.86
CG3281 (GeneID 41445),1,0.31,-0.14,0.24,-0.16
Vav (GeneID 32920),1,0.15,0.33,-1.19,-0.04
Prestin (GeneID 39996),1,0.7,-0.14,-0.29,0.77
Rich (GeneID 40456),1,0.7,0.04,0.46,0.64
CG9961 (GeneID 33459),1,0.06,-0.04,-0.17,-0.41
Mcm7 (GeneID 39014),1,-0.4,-0.6,-0.49,-0.01
CG40245 (retired record) (GeneID 3354884),1,-1.17,-1.02,0.87,0.16
CG10000 (GeneID 43394),1,1.02,-0.25,-0.48,0.05
asRNA:CR43477 + CG12256,1,0.59,0.7,1.13,-4.13
CG15534 (GeneID 43613),1,0.04,2.04,-0.24,-1.26
Orcokinin (GeneID 37806),1,-0.23,0.57,0.85,-0.19
CG14100 (GeneID 40132),1,0.55,1.07,-0.41,0.23
ttm2 (GeneID 38049),1,0.32,0.89,-0.31,0.2
Pex2 (GeneID 38941),1,0.26,-0.41,-0.52,0.19
CG9029 (GeneID 33815),1,-0.08,0.45,-0.28,0.78
CycE (GeneID 34924),1,-6.09,-5.79,-5.13,-10.8
CycE (GeneID 34924),2,-4.17,-5.16,-4.31,-7.59
Gs1 (GeneID 33172),1,1.11,0.81,-0.57,1.02
sm (GeneID 37254),1,0.08,0.22,0.4,0.67
sm (GeneID 37254),2,0.9,0.96,0.09,-1.46
CG9175 (GeneID 33862),1,0.12,0.36,-0.43,-0.06
cert (GeneID 38928),1,0.29,0.73,-0.41,0.71

Not a retest: an excerpt of the list.
Gene,reagent,"replicate 1, z-score of dpERK with insulin","replicate 2, z-score of dpERK with insulin","replicate 1, z-score of dpERK under basal conditions","replicate 1, z-score of ERK-YFP with insulin"
mtt (GeneID 35832),4,-0.35,0.44,-1,0.31
Als2 (GeneID 40410),1,-0.49,-0.5,-0.21,0.33
Nmda1 (GeneID 36419),1,-0.36,-0.87,-0.08,0.86
veli (GeneID 43003),1,0.93,-0.26,0.5,-0.23
Obp56h (GeneID 37271),1,-1.32,-1.6,-0.95,-0.36
Acp53Ea (GeneID 36874),1,-0.38,-0.39,-0.9,0.29
CG2983 (GeneID 33485),1,-0.48,0.57,0.18,0.52
CG11050 (GeneID 33924),1,1.33,0.74,0.7,1.13
